According to patent US20010039006A1, “Toxicity typing using embryoid bodies” (priority 1998, published 2001):
At least one structure is not confirmed: it was looked up by name or label, or the drawing left a doubt.

Assays:
[1] = Table 2, anti-cancer drugs; cited from earlier work
[2] = tested on: embryoid bodies (CCE embryonic stem cells); experiment: Protein expression profile of embryoid bodies exposed to drug, SELDI mass spectroscopy; assay type: cell-based; conditions: day 6 embryoid bodies; for expression pattern of the first 5 nuclear proteins detected (FIGS. 1B, 1C) / expression of first nuclear protein versus control embryoid bodies (FIGS. 1B, 1C): troglitazone 20 μM; for expression pattern of the first 5 nuclear proteins detected (FIGS. 1B, 1C): erythromycin estolate 50 μM; for expression of first nuclear protein versus control embryoid bodies (FIGS. 1B, 1C): erythromycin estolate 50 μM added day 2

Row | Structure (SMILES) | TOXICITIES BLOOD [1] | expression pattern of the first 5 nuclear proteins detected (FIGS. 1B, 1C) [2] | expression of first nuclear protein versus control embryoid bodies (FIGS. 1B, 1C) [2] | expression of small nuclear protein right of 2500 Daltons (FIG. 2B) ([2]; also high in control) | expression of the next small nuclear protein, compared with panel 2C (FIG. 2) ([2]; not expressed at all by control)
1 | CC[C@H](C)[C@@H]([C@@H](CC(=O)N1CCC[C@H]1[C@H](OC)[C@@H](C)C(=O)N[C@@H](Cc1ccccc1)c1nccs1)OC)N(C)C(=O)[C@@H](NC(=O)[C@H](C(C)C)N(C)C)C(C)C [dolastatin 10] | + | – | – | – | –
2 | CCC(=O)O[C@H]1[C@H](O[C@@H]2[C@@H](C)[C@H](O[C@H]3C[C@@](C)(OC)[C@@H](O)[C@H](C)O3)[C@@H](C)C(=O)O[C@H](CC)[C@@](C)(O)[C@H](O)[C@@H](C)C(=O)[C@H](C)C[C@@]2(C)O)O[C@H](C)C[C@@H]1N(C)C [erythromycin estolate] | – | the same pattern of protein expression, but at different levels of expression | expressed considerably more than did bodies contacted with troglitazone | – | –
3 | Cc1c(C)c2c(c(C)c1O)CCC(C)(COc1ccc(CC3SC(=O)NC3=O)cc1)O2 (stereo not shown) [troglitazone] | – | the same pattern of protein expression, but at different levels of expression | expressed more of this protein than did the control | expressed at high levels | also present, in approximately the same amount
